This is an account of results in publication doi:10.1101/2023.10.26.562393.

By UniProt entry, the sequences of proteins in these tests, tags left out. Where a name states a change or a piece, a line headed by the entry shows the natural chain unless it says otherwise.
UniProt Q9UQ84: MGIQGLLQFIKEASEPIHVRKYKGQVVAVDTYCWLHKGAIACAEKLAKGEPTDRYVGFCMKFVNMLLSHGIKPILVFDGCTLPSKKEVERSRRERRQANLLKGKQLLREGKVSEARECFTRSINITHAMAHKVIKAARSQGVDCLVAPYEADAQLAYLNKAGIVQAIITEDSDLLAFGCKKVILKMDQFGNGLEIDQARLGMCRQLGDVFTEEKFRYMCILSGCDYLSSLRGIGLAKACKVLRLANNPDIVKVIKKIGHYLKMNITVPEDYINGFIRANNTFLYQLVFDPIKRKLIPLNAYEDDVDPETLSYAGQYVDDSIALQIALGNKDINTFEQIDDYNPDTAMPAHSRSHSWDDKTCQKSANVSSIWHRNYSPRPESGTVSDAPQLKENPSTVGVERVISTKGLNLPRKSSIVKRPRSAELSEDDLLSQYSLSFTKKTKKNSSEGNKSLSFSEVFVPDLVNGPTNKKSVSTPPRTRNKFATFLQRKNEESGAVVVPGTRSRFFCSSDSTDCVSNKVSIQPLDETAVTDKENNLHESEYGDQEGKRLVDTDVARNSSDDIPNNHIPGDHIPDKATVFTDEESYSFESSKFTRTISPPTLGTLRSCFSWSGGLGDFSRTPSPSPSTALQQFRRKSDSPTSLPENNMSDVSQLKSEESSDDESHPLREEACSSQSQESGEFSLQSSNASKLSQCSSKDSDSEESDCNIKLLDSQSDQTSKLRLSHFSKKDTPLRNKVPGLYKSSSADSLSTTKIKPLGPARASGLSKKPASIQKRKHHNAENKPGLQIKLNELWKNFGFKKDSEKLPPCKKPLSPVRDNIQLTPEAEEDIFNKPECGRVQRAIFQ

Results are given in words; binding and its absence hold for the method and conditions named. Binding seen in cells or lysates may run through a third protein. Binding calls can cover weak binding; strength is not graded here.

Holding throughout (experiment): co-IP
One assay has as its target Flag-EXO1 (UniProt Q9UQ84).
Assay [1] has as its target EXO1 lacking the MLH1 interaction domain part 1 (391-490).
The target of assay [2] is EXO1 lacking the MSH3 interaction domain (129-390).
In assay [3] the target is EXO1 lacking the exonuclease domain (residues 16 to 256).
The target of assay [4] is GFP-EXO1 with serine 815 mutated to alanine (UniProt Q9UQ84).

As for “GFP-cyclin F L35A/P36A (from UniProt P41002)”, in the assay with Flag-EXO1, the binding result is “binds”.

B1: endogenous cyclin F (HEK293T) (protein, UniProt P41002 1-786)
chain: MGSGGVVHCRCAKCFCYPTKRRIRRRPRNLTILSLPEDVLFHILKWLSVEDILAVRAVHSQLKDLVDNHASVWACASFQELWPSPGNLKLFERAAEKGNFEAAVKLGIAYLYNEGLSVSDEARAEVNGLKASRFFSLAERLNVGAAPFIWLFIRPPWSVSGSCCKAVVHESLRAECQLQRTHKASILHCLGRVLSLFEDEEKQQQAHDLFEEAAHQGCLTSSYLLWESDRRTDVSDPGRCLHSFRKLRDYAAKGCWEAQLSLAKACANANQLGLEVRASSEIVCQLFQASQAVSKQQVFSVQKGLNDTMRYILIDWLVEVATMKDFTSLCLHLTVECVDRYLRRRLVPRYRLQLLGIACMVICTRFISKEILTIREAVWLTDNTYKYEDLVRMMGEIVSALEGKIRVPTVVDYKEVLLTLVPVELRTQHLCSFLCELSLLHTSLSAYAPARLAAAALLLARLTHGQTQPWTTQLWDLTGFSYEDLIPCVLSLHKKCFHDDAPKDYRQVSLTAVKQRFEDKRYGEISQEEVLSYSQLCAALGVTQDSPDPPTFLSTGEIHAFLSSPSGRRTKRKRENSLQEDRGSFVTTPTAELSSQEETLLGSFLDWSLDCCSGYEGDQESEGEKEGDVTAPSGILDVTVVYLNPEQHCCQESSDEEACPEDKGPQDPQALALDTQIPATPGPKPLVRTSREPGKDVTTSGYSSVSTASPTSSVDGGLGALPQPTSVLSLDSDSHTQPCHHQARKSCLQCRPPSPPESSVPQQQVKRINLCIHSEEEDMNLGLVRL
With B1, the binding result in assay [1], in assay [2], in assay [3] and in assay [4] was “binds” throughout.
